Two substances from paper doi:10.1101/2023.01.27.525918 (bioRxiv, 2023) can be followed below.

Sequences of proteins named here, by UniProt entry; tags and fusion partners are left off. A change or cut given only in a name is not applied to a line headed by its entry.
UniProt Q96AP4, whole entry: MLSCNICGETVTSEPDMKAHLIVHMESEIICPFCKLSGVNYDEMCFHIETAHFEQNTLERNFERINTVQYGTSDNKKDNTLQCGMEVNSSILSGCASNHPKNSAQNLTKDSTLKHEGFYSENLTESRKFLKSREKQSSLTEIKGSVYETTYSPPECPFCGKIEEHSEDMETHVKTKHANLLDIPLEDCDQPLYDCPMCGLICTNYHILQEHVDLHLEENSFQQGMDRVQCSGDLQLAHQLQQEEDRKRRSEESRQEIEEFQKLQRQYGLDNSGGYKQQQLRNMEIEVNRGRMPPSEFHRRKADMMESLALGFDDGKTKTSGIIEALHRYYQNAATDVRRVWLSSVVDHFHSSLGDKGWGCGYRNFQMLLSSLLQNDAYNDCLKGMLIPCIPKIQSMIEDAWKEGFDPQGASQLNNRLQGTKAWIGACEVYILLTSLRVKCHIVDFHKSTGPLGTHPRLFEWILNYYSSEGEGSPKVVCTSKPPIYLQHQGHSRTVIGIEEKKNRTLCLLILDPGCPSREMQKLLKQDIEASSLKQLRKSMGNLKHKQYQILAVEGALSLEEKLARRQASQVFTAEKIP
UniProt P15927, whole entry: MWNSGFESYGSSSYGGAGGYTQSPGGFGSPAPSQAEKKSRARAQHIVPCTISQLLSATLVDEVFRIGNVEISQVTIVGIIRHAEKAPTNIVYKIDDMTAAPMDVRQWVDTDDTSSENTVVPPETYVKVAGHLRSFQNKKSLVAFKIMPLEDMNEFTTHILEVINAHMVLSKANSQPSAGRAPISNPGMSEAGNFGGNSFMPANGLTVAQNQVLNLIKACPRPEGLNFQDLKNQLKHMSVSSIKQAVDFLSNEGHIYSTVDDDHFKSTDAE

For assay [1], the target named is T1, FLAG-RFWD3 (UniProt Q6PCD5).
T1 sequence: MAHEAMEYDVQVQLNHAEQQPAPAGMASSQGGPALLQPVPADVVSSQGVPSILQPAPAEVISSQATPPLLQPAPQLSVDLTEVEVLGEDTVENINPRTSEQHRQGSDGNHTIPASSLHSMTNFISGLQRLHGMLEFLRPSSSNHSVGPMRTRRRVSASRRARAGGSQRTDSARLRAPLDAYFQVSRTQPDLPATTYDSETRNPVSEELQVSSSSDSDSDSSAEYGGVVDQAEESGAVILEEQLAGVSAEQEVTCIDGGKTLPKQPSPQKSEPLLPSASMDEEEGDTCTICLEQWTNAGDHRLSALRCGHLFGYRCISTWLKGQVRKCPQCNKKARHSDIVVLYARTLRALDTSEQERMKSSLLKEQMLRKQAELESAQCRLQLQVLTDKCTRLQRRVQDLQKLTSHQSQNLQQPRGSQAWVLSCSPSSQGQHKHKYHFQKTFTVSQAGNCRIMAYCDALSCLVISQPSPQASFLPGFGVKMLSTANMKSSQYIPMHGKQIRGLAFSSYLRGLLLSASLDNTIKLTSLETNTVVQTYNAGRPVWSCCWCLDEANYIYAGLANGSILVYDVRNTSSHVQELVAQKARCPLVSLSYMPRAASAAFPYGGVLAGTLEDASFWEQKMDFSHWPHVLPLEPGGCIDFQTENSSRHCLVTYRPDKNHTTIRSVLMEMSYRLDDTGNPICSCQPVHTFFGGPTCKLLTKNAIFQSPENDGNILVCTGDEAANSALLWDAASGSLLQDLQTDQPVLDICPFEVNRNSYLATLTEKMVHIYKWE
The assay is described as follows: co-IP.

For assay [2], the target named is T2, FLAG-RFWD3 C315A (UniProt Q6PCD5).
T2 sequence: T1 sequence with C315A
The assay is described as follows: co-IP.

For assay [3], the target named is Zinc finger-containing Ub peptidase 1 (ZUP1), full length, untagged (human) (UniProt Q96AP4). The assay is described as follows: SEC + SEC-MALS.

Residue numbers refer to the chain shown, from its start. No constants are given. Whether binding was seen depends on the method and setting. For part of these data: Binding seen in cells or lysates may run through a third protein. Some entries that bind do so weakly or less than the wild type. For part of these data: Sequences can lack the tags named with a protein.

Regarding “RPA32, endogenous (from UniProt P15927 1-270)”, the binding result in assay [1] and in assay [2] was “binds” throughout.
For “Zinc finger-containing Ub peptidase 1 (ZUP1), full length, untagged (from UniProt Q96AP4 1-578) (enzyme)”, the binding entry in assay [3] is “no binding”.
